Here are results for one substance from article PMC9107480.

Sequences of proteins named here, by UniProt entry; tags and fusion partners are left off.
UniProt O60573: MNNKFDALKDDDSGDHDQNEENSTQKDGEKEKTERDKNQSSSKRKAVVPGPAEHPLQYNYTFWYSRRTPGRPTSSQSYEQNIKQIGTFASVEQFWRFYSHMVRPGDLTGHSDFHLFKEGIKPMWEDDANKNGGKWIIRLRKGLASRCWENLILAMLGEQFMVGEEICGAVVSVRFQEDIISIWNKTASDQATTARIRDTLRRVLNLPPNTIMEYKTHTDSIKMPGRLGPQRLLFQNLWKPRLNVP

Results are given in words; binding and its absence hold for the method and conditions named. Binding seen in cells or lysates may run through a third protein. Here binding means that the protein was enriched with, or labelled near, the bait; the list need not be complete.

The target of the assay is T1, RBM38 (endogenous) (human (endogenous; cell line of the IP not shown, all cell lines of the paper are human)) (UniProt Q9H0Z9).
T1 sequence: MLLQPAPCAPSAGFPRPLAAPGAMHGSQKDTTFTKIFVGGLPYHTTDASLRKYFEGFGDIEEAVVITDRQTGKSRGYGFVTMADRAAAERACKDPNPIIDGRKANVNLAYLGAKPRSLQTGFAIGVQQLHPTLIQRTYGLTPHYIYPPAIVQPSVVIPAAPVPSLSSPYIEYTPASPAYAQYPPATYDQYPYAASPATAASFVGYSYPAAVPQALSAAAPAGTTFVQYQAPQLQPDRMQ
Description: affinity purification with mass spectrometry; co-immunoprecipitation combined with mass spectrometry, RBM38 as bait.

For “eIF4E2 (endogenous) (from UniProt O60573 1-245)”, the binding entry is “binds”.
